# Laboratory results: the supplement of paper PMC7666118
# Chains of the proteins cited; added tags and fusions are not shown. Lines headed by an entry give the natural chain unless they say otherwise; changes in a name come on top.
# UniProt P37275: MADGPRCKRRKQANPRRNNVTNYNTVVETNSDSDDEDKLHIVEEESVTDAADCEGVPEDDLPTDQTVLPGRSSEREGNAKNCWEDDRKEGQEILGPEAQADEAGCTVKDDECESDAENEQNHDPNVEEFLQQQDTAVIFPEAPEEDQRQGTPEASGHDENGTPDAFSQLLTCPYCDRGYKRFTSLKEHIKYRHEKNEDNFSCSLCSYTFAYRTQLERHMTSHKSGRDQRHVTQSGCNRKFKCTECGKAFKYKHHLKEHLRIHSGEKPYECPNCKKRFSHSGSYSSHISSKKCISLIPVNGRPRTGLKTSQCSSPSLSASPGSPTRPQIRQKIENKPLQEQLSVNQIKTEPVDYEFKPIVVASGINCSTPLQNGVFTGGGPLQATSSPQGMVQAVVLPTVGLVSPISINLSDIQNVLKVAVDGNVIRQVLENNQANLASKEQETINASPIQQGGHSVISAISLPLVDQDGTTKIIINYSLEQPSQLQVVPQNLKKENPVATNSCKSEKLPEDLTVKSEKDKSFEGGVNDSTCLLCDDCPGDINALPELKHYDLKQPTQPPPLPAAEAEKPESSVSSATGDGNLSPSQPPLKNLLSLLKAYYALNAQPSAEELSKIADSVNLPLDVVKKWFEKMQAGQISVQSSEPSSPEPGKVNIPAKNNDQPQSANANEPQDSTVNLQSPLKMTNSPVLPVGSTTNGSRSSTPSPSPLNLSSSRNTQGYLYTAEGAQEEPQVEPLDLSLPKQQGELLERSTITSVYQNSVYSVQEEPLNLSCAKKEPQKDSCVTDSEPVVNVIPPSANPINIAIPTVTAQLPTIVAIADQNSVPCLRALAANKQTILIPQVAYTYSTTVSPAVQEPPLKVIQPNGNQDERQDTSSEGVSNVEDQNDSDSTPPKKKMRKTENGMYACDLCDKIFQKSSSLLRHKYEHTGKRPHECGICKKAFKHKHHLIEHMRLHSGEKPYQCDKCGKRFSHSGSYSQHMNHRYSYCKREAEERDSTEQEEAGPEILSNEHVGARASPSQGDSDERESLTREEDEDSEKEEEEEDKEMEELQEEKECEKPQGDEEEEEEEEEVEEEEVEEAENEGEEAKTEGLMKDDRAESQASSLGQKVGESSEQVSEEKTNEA
# UniProt Q8IY57: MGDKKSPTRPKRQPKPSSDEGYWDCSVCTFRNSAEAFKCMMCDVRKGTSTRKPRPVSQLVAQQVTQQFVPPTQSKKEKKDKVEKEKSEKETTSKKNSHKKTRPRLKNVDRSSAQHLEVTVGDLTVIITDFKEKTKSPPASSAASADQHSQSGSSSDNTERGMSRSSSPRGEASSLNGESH
# UniProt Q96JC1: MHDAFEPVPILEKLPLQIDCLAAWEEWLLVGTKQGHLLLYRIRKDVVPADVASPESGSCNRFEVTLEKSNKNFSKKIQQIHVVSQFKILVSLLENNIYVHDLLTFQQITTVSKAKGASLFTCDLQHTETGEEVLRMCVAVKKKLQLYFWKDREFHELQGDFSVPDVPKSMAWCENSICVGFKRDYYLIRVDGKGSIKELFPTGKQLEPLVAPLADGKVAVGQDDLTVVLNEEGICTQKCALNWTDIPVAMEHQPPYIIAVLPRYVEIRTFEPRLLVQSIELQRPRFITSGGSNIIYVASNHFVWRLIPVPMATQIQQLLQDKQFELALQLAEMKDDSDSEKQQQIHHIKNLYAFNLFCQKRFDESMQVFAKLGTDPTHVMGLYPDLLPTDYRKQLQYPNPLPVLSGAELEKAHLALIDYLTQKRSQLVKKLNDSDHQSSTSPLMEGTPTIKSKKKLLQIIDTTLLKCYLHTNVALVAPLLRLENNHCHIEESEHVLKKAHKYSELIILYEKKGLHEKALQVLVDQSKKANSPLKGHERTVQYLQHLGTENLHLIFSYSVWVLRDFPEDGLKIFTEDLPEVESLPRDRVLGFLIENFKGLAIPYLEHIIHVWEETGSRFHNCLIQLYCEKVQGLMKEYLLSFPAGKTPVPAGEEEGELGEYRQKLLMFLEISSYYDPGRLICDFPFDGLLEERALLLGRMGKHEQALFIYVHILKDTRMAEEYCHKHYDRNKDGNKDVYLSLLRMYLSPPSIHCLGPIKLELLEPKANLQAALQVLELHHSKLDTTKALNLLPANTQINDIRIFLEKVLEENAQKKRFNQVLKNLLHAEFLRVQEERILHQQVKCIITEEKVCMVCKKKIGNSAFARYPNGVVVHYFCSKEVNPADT
# UniProt Q53GS9: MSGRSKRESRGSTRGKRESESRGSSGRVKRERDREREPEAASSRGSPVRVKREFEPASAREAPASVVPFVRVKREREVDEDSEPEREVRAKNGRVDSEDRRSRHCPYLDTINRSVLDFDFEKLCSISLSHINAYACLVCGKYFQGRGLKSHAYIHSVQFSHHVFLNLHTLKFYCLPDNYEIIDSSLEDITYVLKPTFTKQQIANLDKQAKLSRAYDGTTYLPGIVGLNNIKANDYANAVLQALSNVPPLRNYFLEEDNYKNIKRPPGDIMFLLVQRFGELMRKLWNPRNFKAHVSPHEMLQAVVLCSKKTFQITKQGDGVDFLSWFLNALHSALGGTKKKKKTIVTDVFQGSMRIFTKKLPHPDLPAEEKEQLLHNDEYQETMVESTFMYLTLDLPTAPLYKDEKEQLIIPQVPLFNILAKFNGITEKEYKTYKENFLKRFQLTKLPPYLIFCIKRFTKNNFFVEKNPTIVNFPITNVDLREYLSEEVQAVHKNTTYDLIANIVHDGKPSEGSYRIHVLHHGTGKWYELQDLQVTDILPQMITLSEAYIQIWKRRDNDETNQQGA
# UniProt Q969M7: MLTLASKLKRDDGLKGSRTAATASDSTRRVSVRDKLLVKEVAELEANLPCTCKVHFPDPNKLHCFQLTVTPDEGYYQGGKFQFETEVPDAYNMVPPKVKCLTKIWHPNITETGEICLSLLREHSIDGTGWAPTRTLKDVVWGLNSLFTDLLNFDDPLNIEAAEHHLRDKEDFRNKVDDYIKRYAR
# UniProt O75717: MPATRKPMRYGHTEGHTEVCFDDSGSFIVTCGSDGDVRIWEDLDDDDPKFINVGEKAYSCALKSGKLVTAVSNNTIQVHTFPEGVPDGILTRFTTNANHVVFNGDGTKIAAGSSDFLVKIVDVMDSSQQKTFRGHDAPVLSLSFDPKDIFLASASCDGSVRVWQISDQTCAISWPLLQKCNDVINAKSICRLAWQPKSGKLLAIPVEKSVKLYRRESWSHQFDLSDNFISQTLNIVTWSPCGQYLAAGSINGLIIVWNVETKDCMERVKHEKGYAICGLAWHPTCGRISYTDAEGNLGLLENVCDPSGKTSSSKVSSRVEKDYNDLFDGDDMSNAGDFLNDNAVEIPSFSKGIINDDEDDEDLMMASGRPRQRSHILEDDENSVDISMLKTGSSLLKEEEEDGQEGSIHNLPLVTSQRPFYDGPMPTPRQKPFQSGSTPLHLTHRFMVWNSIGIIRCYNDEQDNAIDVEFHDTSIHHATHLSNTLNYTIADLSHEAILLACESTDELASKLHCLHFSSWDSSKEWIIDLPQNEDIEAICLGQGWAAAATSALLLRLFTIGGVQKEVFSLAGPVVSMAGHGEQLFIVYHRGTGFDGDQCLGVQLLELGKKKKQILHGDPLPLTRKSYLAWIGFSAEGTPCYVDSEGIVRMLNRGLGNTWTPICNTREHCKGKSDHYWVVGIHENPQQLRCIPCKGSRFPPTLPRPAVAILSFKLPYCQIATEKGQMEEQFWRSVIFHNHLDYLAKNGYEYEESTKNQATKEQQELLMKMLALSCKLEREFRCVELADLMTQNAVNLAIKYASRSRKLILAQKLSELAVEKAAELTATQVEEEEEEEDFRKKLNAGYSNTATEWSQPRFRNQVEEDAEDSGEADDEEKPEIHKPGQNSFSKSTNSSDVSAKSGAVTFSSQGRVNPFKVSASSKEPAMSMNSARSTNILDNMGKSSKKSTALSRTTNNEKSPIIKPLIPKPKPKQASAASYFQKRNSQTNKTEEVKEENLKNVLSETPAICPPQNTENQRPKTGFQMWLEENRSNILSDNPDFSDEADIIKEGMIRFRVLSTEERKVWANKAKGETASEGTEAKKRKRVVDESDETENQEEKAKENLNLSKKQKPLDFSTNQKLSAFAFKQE
# UniProt Q86T24: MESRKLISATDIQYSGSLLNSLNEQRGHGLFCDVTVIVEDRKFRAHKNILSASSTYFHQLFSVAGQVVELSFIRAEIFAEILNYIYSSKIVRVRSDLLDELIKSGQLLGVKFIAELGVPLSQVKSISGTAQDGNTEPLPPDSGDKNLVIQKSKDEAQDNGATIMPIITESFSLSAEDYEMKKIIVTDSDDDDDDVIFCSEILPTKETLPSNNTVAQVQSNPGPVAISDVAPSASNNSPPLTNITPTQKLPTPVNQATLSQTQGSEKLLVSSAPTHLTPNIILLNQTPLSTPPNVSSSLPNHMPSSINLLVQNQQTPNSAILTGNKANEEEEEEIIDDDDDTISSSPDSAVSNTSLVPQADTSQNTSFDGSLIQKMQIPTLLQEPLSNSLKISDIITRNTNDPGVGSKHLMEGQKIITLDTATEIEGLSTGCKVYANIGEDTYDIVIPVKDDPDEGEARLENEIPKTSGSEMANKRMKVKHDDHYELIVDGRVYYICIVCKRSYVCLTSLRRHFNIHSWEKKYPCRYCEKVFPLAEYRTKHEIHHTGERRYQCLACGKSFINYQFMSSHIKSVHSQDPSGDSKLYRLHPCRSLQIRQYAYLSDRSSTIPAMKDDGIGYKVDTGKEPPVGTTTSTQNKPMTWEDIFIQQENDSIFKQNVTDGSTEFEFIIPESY
# UniProt O00401, whole entry: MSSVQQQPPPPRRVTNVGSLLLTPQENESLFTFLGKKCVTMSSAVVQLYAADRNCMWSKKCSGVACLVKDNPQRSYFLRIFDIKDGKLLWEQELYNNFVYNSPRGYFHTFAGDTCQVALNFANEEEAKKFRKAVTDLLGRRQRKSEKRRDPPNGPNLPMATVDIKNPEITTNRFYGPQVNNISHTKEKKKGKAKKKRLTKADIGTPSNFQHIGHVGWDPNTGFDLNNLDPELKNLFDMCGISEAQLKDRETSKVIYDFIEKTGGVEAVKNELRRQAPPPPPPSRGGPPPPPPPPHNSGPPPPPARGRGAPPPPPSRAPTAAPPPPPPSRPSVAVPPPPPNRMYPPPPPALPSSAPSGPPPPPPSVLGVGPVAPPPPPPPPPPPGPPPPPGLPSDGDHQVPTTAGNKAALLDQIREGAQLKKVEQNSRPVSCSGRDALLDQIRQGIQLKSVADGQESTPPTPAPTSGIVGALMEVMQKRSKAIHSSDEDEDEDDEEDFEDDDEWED
# UniProt Q9HAD4: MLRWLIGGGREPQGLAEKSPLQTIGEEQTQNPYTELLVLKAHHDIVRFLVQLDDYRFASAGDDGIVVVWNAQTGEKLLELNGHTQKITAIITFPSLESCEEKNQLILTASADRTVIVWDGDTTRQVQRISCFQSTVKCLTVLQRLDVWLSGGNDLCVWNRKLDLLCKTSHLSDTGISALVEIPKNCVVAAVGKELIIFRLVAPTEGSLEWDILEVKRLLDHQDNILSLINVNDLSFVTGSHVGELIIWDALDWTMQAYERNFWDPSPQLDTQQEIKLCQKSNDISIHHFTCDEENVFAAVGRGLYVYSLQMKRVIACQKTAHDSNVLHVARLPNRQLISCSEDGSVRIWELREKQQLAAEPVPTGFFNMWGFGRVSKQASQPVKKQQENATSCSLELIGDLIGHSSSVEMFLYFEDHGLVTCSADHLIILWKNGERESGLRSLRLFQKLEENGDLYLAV
# UniProt P15374: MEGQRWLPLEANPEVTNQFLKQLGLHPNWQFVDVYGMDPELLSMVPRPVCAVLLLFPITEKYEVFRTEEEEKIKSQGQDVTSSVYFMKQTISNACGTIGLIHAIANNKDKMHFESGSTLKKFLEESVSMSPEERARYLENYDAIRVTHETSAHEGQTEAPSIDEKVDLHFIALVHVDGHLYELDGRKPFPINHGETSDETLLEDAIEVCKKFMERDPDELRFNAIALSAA
# UniProt Q13426: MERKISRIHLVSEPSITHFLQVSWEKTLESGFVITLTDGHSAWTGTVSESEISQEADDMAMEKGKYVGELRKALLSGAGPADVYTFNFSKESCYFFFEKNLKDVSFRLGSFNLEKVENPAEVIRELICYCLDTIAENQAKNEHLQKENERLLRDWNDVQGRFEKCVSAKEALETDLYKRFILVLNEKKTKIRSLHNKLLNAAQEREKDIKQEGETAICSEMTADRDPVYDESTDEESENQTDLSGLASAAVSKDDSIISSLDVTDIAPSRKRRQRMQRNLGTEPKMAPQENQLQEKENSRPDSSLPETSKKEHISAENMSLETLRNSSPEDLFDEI
# UniProt Q969T9: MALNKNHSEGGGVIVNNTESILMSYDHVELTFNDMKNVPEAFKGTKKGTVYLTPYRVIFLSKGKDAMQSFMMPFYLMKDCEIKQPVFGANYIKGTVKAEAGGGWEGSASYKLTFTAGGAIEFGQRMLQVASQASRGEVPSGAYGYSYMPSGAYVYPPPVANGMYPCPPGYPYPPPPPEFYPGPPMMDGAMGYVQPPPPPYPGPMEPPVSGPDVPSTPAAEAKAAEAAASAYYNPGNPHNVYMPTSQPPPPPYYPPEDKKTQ
# Some of the results follow.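 The calls were made as follows: active = dose-dependent thermal stabilisation significant by F-test of dose-response against flat model at 10% FDR; inactive = not significant.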
# Compound: Nc1nc2c(ncn2[C@@H]2O[C@H](COP(=O)(O)OP(=O)(O)OP(=O)(O)O)[C@@H](O)[C@H]2O)c(=O)[nH]1
# Experiment: dose-dependent thermal stabilisation call (2D-TPP, DLPTP, 10% FDR) (binary (1 = stabilised)); higher = stabilised by the compound
# Conditions: system: Jurkat gel-filtered lysate; concentration range 1-500 µM
row,Target,dose-dependent thermal stabilisation call
1,VPS37B (UniProt Q9H9H4),inactive: 0
2,ZEB1 (UniProt P37275),inactive: 0
3,VPS28 (UniProt Q9UK41),inactive: 0
4,VPS33A (UniProt Q96AX1),inactive: 0
5,YAF2 (UniProt Q8IY57),inactive: 0
6,UBE2O (UniProt Q9C0C9),inactive: 0
7,UBXN1 (UniProt Q04323),inactive: 0
8,VPS39 (UniProt Q96JC1),inactive: 0
9,USP39 (UniProt Q53GS9),inactive: 0
10,UBE2F (UniProt Q969M7),inactive: 0
11,WDR6 (UniProt Q9NNW5),inactive: 0
12,WDHD1 (UniProt O75717),inactive: 0
13,UBE2E2 (UniProt Q96LR5),active: 1
14,UCK2 (UniProt Q9BZX2),active: 1
15,VAC14 (UniProt Q08AM6),inactive: 0
16,ZBTB33 (UniProt Q86T24),inactive: 0
17,VWA5A (UniProt O00534),inactive: 0
18,WASL (UniProt O00401),inactive: 0

row,Target,dose-dependent thermal stabilisation call
1,WDR41 (UniProt Q9HAD4),inactive: 0
2,VPS36 (UniProt Q86VN1),inactive: 0
3,UCK1 (UniProt Q9HA47),active: 1
4,VPS16 (UniProt Q9H269),inactive: 0
5,YTHDF2 (UniProt Q9Y5A9),inactive: 0
6,UCHL3 (UniProt P15374),inactive: 0
7,UHRF1BP1 (UniProt Q6BDS2),inactive: 0
8,UTP14A (UniProt Q9BVJ6),inactive: 0
9,VWA8 (UniProt A3KMH1),active: 1
10,XRCC4 (UniProt Q13426),inactive: 0
11,WDR73 (UniProt Q6P4I2),inactive: 0
12,UPRT (UniProt Q96BW1),active: 1
13,ZBTB24 (UniProt O43167),inactive: 0
14,UBE3A (UniProt Q05086),inactive: 0
15,YTHDF3 (UniProt Q7Z739),inactive: 0
16,UBXN7 (UniProt O94888),inactive: 0
17,UGGT1 (UniProt Q9NYU2),inactive: 0
18,WBP2 (UniProt Q969T9),inactive: 0

# Ten entries from above, reformatted:
row	Target	dose-dependent thermal stabilisation call
1	WDR41 (UniProt Q9HAD4)	inactive: 0
5	YTHDF2 (UniProt Q9Y5A9)	inactive: 0
6	UCHL3 (UniProt P15374)	inactive: 0
7	UHRF1BP1 (UniProt Q6BDS2)	inactive: 0
8	UTP14A (UniProt Q9BVJ6)	inactive: 0
10	XRCC4 (UniProt Q13426)	inactive: 0
13	ZBTB24 (UniProt O43167)	inactive: 0
15	YTHDF3 (UniProt Q7Z739)	inactive: 0
17	UGGT1 (UniProt Q9NYU2)	inactive: 0
18	WBP2 (UniProt Q969T9)	inactive: 0
